Laboratory results: ChEMBL document CHEMBL3817793, “Recent Progress in the Discovery of Next Generation Inhibitors of Aromatase from the Structure-Function Perspective” (J Med Chem, 2016)

Target: T1, Aromatase (Homo sapiens, UniProt P11511)
T1 sequence (P11511 whole entry): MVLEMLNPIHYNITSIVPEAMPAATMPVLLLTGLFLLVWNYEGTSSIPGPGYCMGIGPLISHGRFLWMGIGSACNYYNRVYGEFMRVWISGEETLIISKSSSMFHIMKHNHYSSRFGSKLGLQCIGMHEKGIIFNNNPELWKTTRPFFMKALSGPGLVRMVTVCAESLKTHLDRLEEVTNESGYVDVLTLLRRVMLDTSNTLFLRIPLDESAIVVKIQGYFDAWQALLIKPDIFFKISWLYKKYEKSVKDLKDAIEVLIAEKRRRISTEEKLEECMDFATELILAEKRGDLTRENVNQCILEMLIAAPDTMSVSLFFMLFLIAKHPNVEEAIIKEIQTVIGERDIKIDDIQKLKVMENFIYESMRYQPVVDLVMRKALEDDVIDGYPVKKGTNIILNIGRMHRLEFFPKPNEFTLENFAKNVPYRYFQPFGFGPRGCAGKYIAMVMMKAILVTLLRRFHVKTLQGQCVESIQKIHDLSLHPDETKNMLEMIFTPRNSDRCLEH

IC50: 3.6 nM
SMILES: CC(C)(C#N)c1cc(Cn2cncn2)cc(C(C)(C)C#N)c1 [ANASTROZOLE]
